Results are given in words; binding and its absence hold for the method and conditions named. In cells and extracts the contact can be indirect. Some results given as binding are weak or reduced against the parent protein; the word gives no strength. Sequences can lack the tags named with a protein.
Target: T1, GFP-Cdc42ep5^WT (murine Cdc42ep5 with N-terminal GFP) (murine) (UniProt Q9Z0X0)
T1 sequence: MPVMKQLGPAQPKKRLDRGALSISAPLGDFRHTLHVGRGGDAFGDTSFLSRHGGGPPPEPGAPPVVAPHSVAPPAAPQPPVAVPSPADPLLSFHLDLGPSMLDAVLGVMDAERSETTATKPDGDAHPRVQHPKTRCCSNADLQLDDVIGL
Experiment: co-IP

binding: binds
B1: Sept9 (endogenous, murine) (protein, UniProt Q80UG5 1-583)
chain: MKKSYSGVTRTSSGRLRRLADPTGPALKRSFEVEEIEPPNSTPPRRVQTPLLRATVASSSQKFQDLGVKNSEPAARLVDSLSQRSPKPSLRRVELAGAKAPEPMSRRTEISIDISSKQVESTASAAGPSRFGLKRAEVLGHKTPEPVPRRTEITIVKPQESVLRRVETPASKIPEGSAVPATDAAPKRVEIQVPKPAEAPNCPLPSQTLENSEAPMSQLQSRLEPRPSVAEVPYRNQEDSEVTPSCVGDMADNPRDAMLKQAPASRNEKAPMEFGYVGIDSILEQMRRKAMKQGFEFNIMVVGQSGLGKSTLINTLFKSKISRKSVQPTSEERIPKTIEIKSITHDIEEKGVRMKLTVIDTPGFGDHINNENCWQPIMKFINDQYEKYLQEEVNINRKKRIPDTRVHCCLYFIPATGHSLRPLDIEFMKRLSKVVNIVPVIAKADTLTLEERVYFKQRITADLLSNGIDVYPQKEFDEDAEDRLVNEKFREMIPFAVVGSDHEYQVNGKRILGRKTKWGTIEVENTTHCEFAYLRDLLIRTHMQNIKDITSNIHFEAYRVKRLNEGNSAMANGIEKEPEAQEM

Source: paper doi:10.1101/570747
